Experimental findings from paper PMC9418256 are described below.

The target of this assay is KINβ2-YFP (Arabidopsis thaliana). The assay is described as follows: co-IP; lysate of 10-day-old Arabidopsis seedlings co-expressing pKIN10::KIN10-Myc and pKINβ2::KINβ2-YFP (control: pKIN10::KIN10-Myc only), treated with or without 2 mM H2O2 for 3 h; GFP-Trap agarose beads, 4 °C, 1 h; immunoblot with anti-GFP and anti-Myc. (In general: In western blotting, separated proteins are transferred to a membrane and probed.)

These are yes or no findings as the source states them, for the method shown. In cells and extracts the contact can be indirect. Binding calls can cover weak binding; strength is not graded here. Tags and fused reporters may be left off the sequences shown.

B1: KIN10-Myc (enzyme, UniProt Q38997 1-512)
chain: MDGSGTGSRSGVESILPNYKLGRTLGIGSFGRVKIAEHALTGHKVAIKILNRRKIKNMEMEEKVRREIKILRLFMHPHIIRLYEVIETPTDIYLVMEYVNSGELFDYIVEKGRLQEDEARNFFQQIISGVEYCHRNMVVHRDLKPENLLLDSKCNVKIADFGLSNIMRDGHFLKTSCGSPNYAAPEVISGKLYAGPEVDVWSCGVILYALLCGTLPFDDENIPNLFKKIKGGIYTLPSHLSPGARDLIPRMLVVDPMKRVTIPEIRQHPWFQAHLPRYLAVPPPDTVQQAKKIDEEILQEVINMGFDRNHLIESLRNRTQNDGTVTYYLILDNRFRASSGYLGAEFQETMEGTPRMHPAESVASPVSHRLPGLMEYQGVGLRSQYPVERKWALGLQSRAHPREIMTEVLKALQDLNVCWKKIGHYNMKCRWVPNSSADGMLSNSMHDNNYFGDESSIIENEAAVKSPNVVKFEIQLYKTRDDKYLLDLQRVQGPQFLFLDLCAAFLAQLRVL
With B1, the binding entry was “binds”.
